Test results reported in ChEMBL document CHEMBL4339225, “Self-assembling Releasable Thiocolchicine-Diphenylbutenylaniline Conjugates” (ACS Med Chem Lett, 2019).

Key:
Type in all cases: functional
[1] = tested on: HeLa; assay: Antiproliferative activity against human HeLa cells assessed as reduction in cell number incubated for 72 hrs
[2] = tested on: MCF7; assay: Antiproliferative activity against human MCF7 cells assessed as reduction in cell number incubated for 72 hrs; details: MCF7, 72 h
[3] = tested on: HepG2; assay: Antiproliferative activity against human HepG2 cells assessed as reduction in cell number incubated for 72 hrs; details: HepG2, 72 h

Work on `COc1cc2c(c(OC)c1OC)-c1ccc(SC)c(=O)cc1[C@@H](N)CC2` yielded a GI50 [1] of 14 nM, a GI50 [2] of 18 nM and a GI50 [3] of 18 nM.
